# Primary screen of a compound library

Chains of the proteins cited; added tags and fusions are not shown.
UniProt E9BF75, entry or part of it: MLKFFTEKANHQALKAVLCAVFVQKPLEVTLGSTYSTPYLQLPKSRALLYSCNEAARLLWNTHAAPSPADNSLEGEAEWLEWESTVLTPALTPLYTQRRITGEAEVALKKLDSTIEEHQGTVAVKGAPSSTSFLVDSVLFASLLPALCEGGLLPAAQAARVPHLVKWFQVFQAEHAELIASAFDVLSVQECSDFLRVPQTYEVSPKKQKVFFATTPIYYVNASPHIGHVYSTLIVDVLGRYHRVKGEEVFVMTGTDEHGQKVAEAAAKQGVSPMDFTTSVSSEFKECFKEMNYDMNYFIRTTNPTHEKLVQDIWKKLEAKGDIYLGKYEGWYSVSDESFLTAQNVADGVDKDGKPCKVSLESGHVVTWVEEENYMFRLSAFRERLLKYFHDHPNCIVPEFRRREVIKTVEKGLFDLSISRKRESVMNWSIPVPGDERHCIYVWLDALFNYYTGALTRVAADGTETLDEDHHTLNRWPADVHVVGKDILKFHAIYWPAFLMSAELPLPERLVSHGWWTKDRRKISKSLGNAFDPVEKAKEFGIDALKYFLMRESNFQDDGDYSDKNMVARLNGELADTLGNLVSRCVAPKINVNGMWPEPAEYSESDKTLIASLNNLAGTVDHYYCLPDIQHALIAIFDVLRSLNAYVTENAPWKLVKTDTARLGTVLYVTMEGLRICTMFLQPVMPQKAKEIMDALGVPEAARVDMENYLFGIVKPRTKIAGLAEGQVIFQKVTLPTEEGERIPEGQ

All values are in %. The controls that fix the scale are not given in the record; negative values are as filed. Compounds were drawn at random from those tested, without regard to their results. A dash means the value is not listed here; it may have been measured.

A: 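Primary screen of methionyl-tRNA synthetase; the read-out is not stated. Target: Methionyl-tRNA synthetase (putative), Leishmania donovani (UniProt E9BF75). The test concentration is not given. Values are per cent inhibition. Of about 68,000 compounds tested this way, about 24 (0.035%) reached 50% or more in at least one test.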
B: 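Assay on Mycobacterium tuberculosis, filed only as a heat shock assay from Cornell; the read-out is not stated. The concentration is filed as 10 mM, unlikely as a test dose, so the dose is not known. Higher reads as stronger inhibition (inferred: compounds with an IC50 in retests scored well above the rest). Of about 69,000 compounds tested this way, about 930 (1.4%) reached 50% or more in at least one test.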

* CC(C)(C)N1CCN(C(=O)c2cccnc2-n2cncn2)CC1 | A: 11.41%; B: -12.92%
* CCN1C(=O)C[C@@H]2[C@@H]1CCN2S(=O)(=O)Cc1ccc(C)cc1 | A: 8.75%
* N#Cc1cccc(N2CCOCC3(CCCN(C(=O)NC4CC4)C3)C2)c1 (stereo not given) | A: 14.98%; B: 13.11%
* CO[C@@H]1CCN(S(=O)(=O)c2cccnc2)[C@@H]2CN(CC3CC3)C[C@@H]21 | A: 9.453%
* Cc1ccc(OCCN(C)C(=O)CCCC(N)=O)c(C)c1 | A: 12.28%; B: 9.31%
* c1ccc(NCc2cn3c(n2)CN(Cc2cccnc2)CC3)nc1 | A: 14.48%
* COc1cccc(CN2CCC3(CCN(c4ncc(C)cn4)CC3)C2)c1 | A: 10.03%
* COCC(=O)N1CCC2(CCN(Cc3ccccn3)CC2)CC1 | A: 9.013%; B: -2.1%
* CC(=O)NCC(=O)N1Cc2nc(COCc3csc(C)n3)oc2C1 | A: 9.42%; B: -4.044%
* [H][C@]12C[C@H](C(=O)NCC3CC3)N(C)[C@@]1([H])CN(Cc1ccoc1)C2 | B: -5.765%
* Cc1ccc(C(=O)N2CCC(n3cc(CO)nn3)CC2)cn1 | A: 1.882%; B: -11.48%
* [H][C@@]12CCCO[C@]1([H])[C@H](NC(=O)C1CC1)CN2Cc1ccc2c(c1)OCO2 | B: -5.384%
* Cc1noc(C)c1CN1CCOC2(CCCN(c3ncccn3)C2)C1.O=C(O)C(F)(F)F (stereo not given) | B: -27.33%
* COCCNC(=O)[C@@H]1CN(Cc2sccc2C)C[C@H]2OCC[C@H]21 | A: 15%
* O=C(O)C(F)(F)F.[H][C@@]12CCN(S(=O)(=O)C3CC3)C[C@]1(COc1ncccc1F)CCO2 | B: 2.28%
* CC(=O)N1CCN(c2cc(-c3ccccc3)nc3c(C)c(C)nn23)CC1 | A: 17.5%; B: 36.88%
* Cc1nsc(NC(=O)NC2CCN(C)CC2)n1 | A: 11.38%; B: 3.377%
* Cc1nc(CNC(=O)c2ccc3c(c2)nc(N2CCOCC2)n3C)cs1 | A: 8.782%; B: -6.028%
* COc1ccc(C[C@H]2CNCC[C@H]2OC)cc1.O=C(O)C(F)(F)F | B: -6.498%
* CC(C)CNc1nccc(-c2cnc3sc(Cl)cn3c2=O)n1 | A: 12.38%; B: -14.37%
* O=C(O)C(F)(F)F.O=C(O)C(F)(F)F.[H][C@@]12CCN(CC3CCOCC3)C[C@]1(COc1ncccc1F)CCO2 | B: 11.94%
* Cc1cc2n(n1)CC(CNCc1ccc(Oc3ccccc3)nc1)CN2 (stereo not given) | A: 26.23%; B: -29.65%
* O=C(c1ccco1)N1CCC2(CC1)C(=O)Nc1ccccc12 | A: 5.155%; B: 7.902%
* COCCN1CCC2(CCC1=O)CN(C1CCOCC1)CCN2C (stereo not given) | A: 9.207%; B: 12.23%
* O=C(CS(=O)(=O)Cc1nnnn1C1CC1)NCC1CC1 | A: 4.19%; B: 13.04%
* COCC(=O)NC[C@H]1CC[C@H](c2ccnc3ncnn32)CC1 | A: 12.07%; B: 20.19%
* CC(C)(N)C(=O)N1CCCC(C(=O)c2ccc(C(C)(C)C)cc2)C1 (stereo not given) | A: 17.09%; B: 11.03%
* CC(C)[C@@H]1CN(C(=O)NCc2ccco2)C[C@H]1N(C)C | A: 14.44%; B: 15.32%
* CCCc1ncc(CN(CCOC)Cc2cccs2)cn1 | A: 4.735%; B: -30.69%
* CCOCCCC(=O)NCCC(=O)N1CCN(c2ccccn2)CC1 | A: 14.08%; B: 15.52%
* Cc1cc(N2CCN(C3CCSCC3)CC2)n2nc(C)c(C)c2n1 | A: 8.511%; B: -25.51%
* CSCCN(C)Cc1ccc(F)cc1C#N | A: -0.838%; B: -14.17%
* CCCn1nnc2c(sc3nc(N4CCOCC4)c4c(c32)CCC4)c1=O | A: 12.9%; B: 34.2%
* O=C(c1ccccc1O)N1CCn2c(nnc2C(F)(F)F)C1 | A: 13.86%; B: 4.293%
* Cc1ccc(CN2CCn3cc(CNC(=O)c4cnn(C)c4)nc3C2)s1.O=C(O)C(F)(F)F | B: 9.969%
* O=C(NCC(O)c1cccc(F)c1)C1CCN(C2CCCCC2)CC1 (stereo not given) | A: 9.97%; B: -130.8%
* CNC(=O)CN(C(=O)c1cc(C(C)C)no1)c1cccc(F)c1 | A: 4.826%; B: -14.05%

Once more, the final 3:

SMILES,A,B
Cc1ccc(CN2CCn3cc(CNC(=O)c4cnn(C)c4)nc3C2)s1.O=C(O)C(F)(F)F,-,9.969%
O=C(NCC(O)c1cccc(F)c1)C1CCN(C2CCCCC2)CC1 (stereo not given),9.97%,-130.8%
CNC(=O)CN(C(=O)c1cc(C(C)C)no1)c1cccc(F)c1,4.826%,-14.05%

Source: ChEMBL document CHEMBL3988442, “University of Dundee, Small-Polar-MMV Screening Library” (2021).